Experimental data: PubChem BioAssay AID652243 (Drosophila RNAi Screening Center, 2013)

- Test: 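Knock-downs that decrease or increase androgen receptor reporter signal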 (primary screen)
- Cells: Drosophila S2R+ cells
- Reagent: long dsRNA against Drosophila genes
- Timing: 72 h (48 h, then 24 h hormone)
- Treatment: synthetic androgen R1881 at 10 nM for 24 h
- Read-out: 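Per-well raw luminescence of the androgen-driven firefly reporter and of the Renilla control, two replicates each, without normalisation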
- Scale: firefly reporter light: higher = more light from androgen-responsive reporter; Renilla control light: higher = more constitutive control signal (cell number, transfection)
- Rule for the call: 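Across duplicate plates, a knock-down whose log firefly/Renilla ratio shifted a set fold down or up from the GFP/LacZ control mean was a hit; the downward cut appears as both 1.5 and 3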
- Meaning of the calls: active = hit: reporter lowered or raised; inactive = no hit
In all, the deposit lists about 24,000 reagents; this is a random part of those that have a named target and a result. In the full data, 246 (1%) were called active. 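Plates not normalised; calls are printed but the firefly/Renilla ratio behind them is not deposited; fold cut for lowering reported inconsistently.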 Raw values vary from plate to plate and are shown uncorrected. Names joined by + are all predicted targets of the reagent. Not given: the amount of reagent.

no.	predicted target	DRSC id	firefly reporter light, replicate 1	firefly reporter light, replicate 2	Renilla control light, replicate 1	Renilla control light, replicate 2	call
1	eIF3f2	DRSC04903	4.32e5	3.27e5	2.65e6	1.91e6	inactive
2	CG15784	DRSC18090	2.18e5	2.91e5	2.65e6	2.79e6	inactive
3	CG15784	DRSC25383	1.03e6	1.05e6	1.33e6	1.21e6	inactive
4	14-3-3zeta	DRSC05028	1.02e6	8.09e5	1.89e6	1.69e6	inactive
5	14-3-3zeta	DRSC27525	2.99e5	2.53e5	3.91e5	7.69e5	inactive
6	14-3-3zeta	DRSC37012					inactive
7	mip40	DRSC06541	2.51e5	6.52e5	4.66e5	8.89e5	inactive
8	CG14929	DRSC02411	2.11e5	2.84e5	2.28e6	2.32e6	inactive
9	CG14298	DRSC14777	2.29e5	2.60e5	3.71e6	3.10e6	inactive
10	bisc	DRSC04083	8.37e5	7.58e5	2.60e6	3.15e6	inactive
11	bisc	DRSC28459	2.59e5	2.36e5	4.55e5	9.02e5	inactive
12	Rpn10	DRSC11876	2.22e5	1.99e5	1.41e6	1.33e6	inactive
13	Pdfr	DRSC18614	3.56e5	5.10e5	3.85e6	4.21e6	inactive
14	ZnT49B	DRSC07225	2.95e5	2.08e5	2.10e6	1.60e6	inactive
15	CG13127	DRSC02223	1.40e5	99517	1.26e6	8.98e5	inactive
16	CG13127	DRSC29726	4.90e5	3.91e5	1.80e6	1.69e6	inactive
17	Surf4	DRSC16875	1.37e5	1.63e5	1.69e6	2.21e6	inactive
18	CG42673	DRSC08989	1.81e5	1.77e5	4.98e5	4.47e5	inactive
19	CG42673	DRSC08991	11054	11109	42250	47330	inactive
20	CG42673	DRSC10177	2.10e5	2.17e5	1.74e6	1.56e6	inactive
21	CG42673	DRSC10264	3.45e5	3.12e5	2.21e6	2.04e6	inactive
22	CG42673	DRSC10353	3.42e5	2.83e5	3.67e6	2.94e6	inactive
23	CG42673	DRSC10354	3.95e5	3.04e5	2.87e6	2.25e6	inactive
24	CG42673	DRSC25788	4.24e5	3.43e5	8.76e5	7.06e5	inactive
25	so	DRSC23096	7.67e5	8.70e5	6.21e5	7.31e5	inactive
26	GlyRS	DRSC10711	9.01e5	1.06e6	1.11e6	1.68e6	inactive
27	CG15635	DRSC00470	3.51e5	3.20e5	2.02e6	2.40e6	inactive
28	CG15635	DRSC22873	1.88e5	2.13e5	7.18e5	1.12e6	inactive
29	CG32809	DRSC18507	3.87e5	1.96e5	1.57e6	1.29e6	inactive
30	CG32809	DRSC18592	63478	75534	6.31e5	4.51e5	inactive
31	GV1	DRSC08228	47689	80542	1.34e6	1.53e6	inactive
32	GV1	DRSC25953	3.30e5	3.61e5	6.37e5	5.96e5	inactive
33	Usf	DRSC18129	1.87e5	1.25e5	3.23e6	2.43e6	inactive
34	Usf	DRSC23749	5.11e5	2.89e5	9.88e5	3.27e5	inactive
35	Polr3H	DRSC10817	2.79e5	2.12e5	2.96e6	2.29e6	inactive
36	Cpr76Bd	DRSC11063	2.38e5	1.87e5	2.09e6	1.79e6	inactive
37	clt	DRSC04621	2.78e5	2.87e5	1.78e6	1.57e6	inactive
38	CG43737	DRSC19609	5.25e5	5.92e5	2.74e6	3.42e6	inactive
39	CG43737	DRSC19610	4.30e5	5.23e5	3.79e6	3.76e6	inactive
40	CG43737	DRSC27659	5.61e5	6.08e5	7.52e5	7.95e5	inactive
41	CG43737	DRSC38998	4.09e5	3.71e5	1.72e6	1.29e6	inactive
42	drongo	DRSC00814	1.43e5	2.00e5	9.87e5	1.16e6	active
43	drongo	DRSC25074	2.23e5	3.32e5	2.79e5	4.45e5	inactive
44	CG1628	DRSC18109	98338	74448	5.77e5	5.16e5	inactive
45	mRpS6	DRSC08470	1.16e5	1.18e5	1.28e6	1.69e6	inactive
46	mRpS6	DRSC29280	4.49e5	3.86e5	1.18e6	1.17e6	inactive
47	CG3589	DRSC04392	8.16e5	6.01e5	1.47e6	1.24e6	inactive
48	CG3589	DRSC26755	7.45e5	4.02e5	8.93e5	4.29e5	inactive
49	Jon99Fii + Jon99Cii + Jon99Ciii + 1 more	DRSC15298	1.61e5	1.87e5	2.36e6	3.37e6	inactive
50	CG8944	DRSC20128	3.40e5	4.32e5	3.36e6	3.63e6	inactive
51	CG8944	DRSC21342	5.85e5	4.52e5	1.36e6	1.33e6	inactive
52	CG8944	DRSC23741	1.37e6	1.17e6	1.08e6	9.54e5	inactive
53	TMEM216	DRSC16378	1.22e5	1.24e5	2.16e6	2.45e6	inactive
54	TMEM216	DRSC25583	5.69e5	6.67e5	8.25e5	8.91e5	inactive
55	rumi	DRSC15177	83511	97696	7.08e5	7.35e5	inactive
56	rumi	DRSC29617	6.39e5	6.54e5	9.20e5	9.20e5	inactive
57	CG7991	DRSC08609	92789	94934	9.97e5	1.04e6	inactive
58	CG7991	DRSC29595	6.65e5	6.55e5	9.45e5	9.45e5	inactive

7 entries from above, reformatted.
{"predicted target":"CG15635","DRSC id":"DRSC00470","firefly reporter light, replicate 1":3.51e5,"firefly reporter light, replicate 2":3.20e5,"Renilla control light, replicate 1":2.02e6,"Renilla control light, replicate 2":2.40e6,"call":"inactive"}
{"predicted target":"CG15635","DRSC id":"DRSC22873","firefly reporter light, replicate 1":1.88e5,"firefly reporter light, replicate 2":2.13e5,"Renilla control light, replicate 1":7.18e5,"Renilla control light, replicate 2":1.12e6,"call":"inactive"}
{"predicted target":"CG32809","DRSC id":"DRSC18507","firefly reporter light, replicate 1":3.87e5,"firefly reporter light, replicate 2":1.96e5,"Renilla control light, replicate 1":1.57e6,"Renilla control light, replicate 2":1.29e6,"call":"inactive"}
{"predicted target":"CG32809","DRSC id":"DRSC18592","firefly reporter light, replicate 1":63478,"firefly reporter light, replicate 2":75534,"Renilla control light, replicate 1":6.31e5,"Renilla control light, replicate 2":4.51e5,"call":"inactive"}
{"predicted target":"GV1","DRSC id":"DRSC08228","firefly reporter light, replicate 1":47689,"firefly reporter light, replicate 2":80542,"Renilla control light, replicate 1":1.34e6,"Renilla control light, replicate 2":1.53e6,"call":"inactive"}
{"predicted target":"GV1","DRSC id":"DRSC25953","firefly reporter light, replicate 1":3.30e5,"firefly reporter light, replicate 2":3.61e5,"Renilla control light, replicate 1":6.37e5,"Renilla control light, replicate 2":5.96e5,"call":"inactive"}
{"predicted target":"Usf","DRSC id":"DRSC18129","firefly reporter light, replicate 1":1.87e5,"firefly reporter light, replicate 2":1.25e5,"Renilla control light, replicate 1":3.23e6,"Renilla control light, replicate 2":2.43e6,"call":"inactive"}
